Experimental data: publication PMC8053111, “MKRN3-mediated ubiquitination of Poly(A)-binding proteins modulates the stability and translation of GNRH1 mRNA in mammalian puberty” (Nucleic Acids Research, 2021)
Results are given in words; binding and its absence hold for the method and conditions named. In cells and extracts the contact can be indirect. Here binding means that the protein was enriched with, or labelled near, the bait; the list need not be complete. Where a sequence is shown, tags or fusion partners need not be part of it.

Amino acid sequences for entries named in this document (tags omitted).
UniProt P11940: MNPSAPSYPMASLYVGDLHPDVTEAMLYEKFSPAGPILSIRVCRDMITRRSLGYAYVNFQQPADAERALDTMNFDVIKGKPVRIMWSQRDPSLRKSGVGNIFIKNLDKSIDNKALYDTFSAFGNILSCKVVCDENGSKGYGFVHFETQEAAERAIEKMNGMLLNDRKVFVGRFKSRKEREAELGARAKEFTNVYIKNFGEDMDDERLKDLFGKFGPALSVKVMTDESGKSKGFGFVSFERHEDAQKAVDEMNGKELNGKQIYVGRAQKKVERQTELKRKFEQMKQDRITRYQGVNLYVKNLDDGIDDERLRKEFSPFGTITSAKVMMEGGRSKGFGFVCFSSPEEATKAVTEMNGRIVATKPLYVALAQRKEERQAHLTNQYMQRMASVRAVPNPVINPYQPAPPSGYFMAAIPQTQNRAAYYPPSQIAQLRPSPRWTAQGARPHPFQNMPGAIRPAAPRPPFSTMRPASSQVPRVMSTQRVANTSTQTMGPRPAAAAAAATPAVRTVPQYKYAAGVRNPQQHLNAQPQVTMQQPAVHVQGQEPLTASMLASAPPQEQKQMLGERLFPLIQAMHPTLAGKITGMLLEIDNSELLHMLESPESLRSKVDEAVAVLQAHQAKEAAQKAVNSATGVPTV
UniProt Q9H361: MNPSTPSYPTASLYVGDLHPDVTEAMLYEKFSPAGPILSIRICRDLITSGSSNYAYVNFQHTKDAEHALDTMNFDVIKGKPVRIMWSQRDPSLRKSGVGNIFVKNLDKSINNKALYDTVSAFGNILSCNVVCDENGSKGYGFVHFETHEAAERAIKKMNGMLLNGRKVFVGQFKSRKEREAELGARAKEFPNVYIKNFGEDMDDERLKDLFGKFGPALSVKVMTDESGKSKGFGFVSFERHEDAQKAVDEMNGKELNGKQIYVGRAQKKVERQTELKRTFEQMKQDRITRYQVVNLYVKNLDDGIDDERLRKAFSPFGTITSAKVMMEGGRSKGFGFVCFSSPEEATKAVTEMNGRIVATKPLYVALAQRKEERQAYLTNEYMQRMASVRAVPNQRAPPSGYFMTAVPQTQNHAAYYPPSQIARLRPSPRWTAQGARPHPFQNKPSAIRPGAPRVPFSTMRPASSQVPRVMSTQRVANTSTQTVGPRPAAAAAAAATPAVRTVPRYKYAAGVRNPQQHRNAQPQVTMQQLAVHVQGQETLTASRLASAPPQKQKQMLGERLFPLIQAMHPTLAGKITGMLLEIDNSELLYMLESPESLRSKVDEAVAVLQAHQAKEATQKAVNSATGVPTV

Target: T1, 3xFlag-tagged MKRN3 (human) (UniProt Q13064)
T1 sequence: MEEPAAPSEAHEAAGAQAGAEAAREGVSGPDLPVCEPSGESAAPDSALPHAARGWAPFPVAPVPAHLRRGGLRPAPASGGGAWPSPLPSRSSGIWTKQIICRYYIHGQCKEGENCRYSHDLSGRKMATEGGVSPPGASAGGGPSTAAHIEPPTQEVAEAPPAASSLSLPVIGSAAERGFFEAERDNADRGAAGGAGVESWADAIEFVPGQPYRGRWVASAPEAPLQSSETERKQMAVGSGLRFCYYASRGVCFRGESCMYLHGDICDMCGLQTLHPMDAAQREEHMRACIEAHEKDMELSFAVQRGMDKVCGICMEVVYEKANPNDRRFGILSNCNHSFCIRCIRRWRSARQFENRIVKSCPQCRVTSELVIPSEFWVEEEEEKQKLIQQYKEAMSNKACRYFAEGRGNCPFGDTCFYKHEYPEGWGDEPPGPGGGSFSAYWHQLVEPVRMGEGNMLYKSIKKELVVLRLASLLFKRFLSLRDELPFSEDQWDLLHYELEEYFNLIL
Assay: affinity purification with mass spectrometry; HEK293T transfected with MKRN3-3xFlag or empty vector, 48 h; lysed in Co-IP buffer (50 mM Tris-HCl, 150 mM NaCl, 5 mM EDTA, 1% NP-40, pH 7.6); anti-Flag affinity gels overnight at 4°C with or without RNaseA (50 μg/ml); label-free quantitation, three samples each group

binding | Substance
binds | PABPC1 (endogenous, HEK293T) (from UniProt P11940 1-636)
binds | PABPC3 (endogenous, HEK293T) (from UniProt Q9H361 1-631)
